Measured values from patent US6589933.
These are yes or no findings as the source states them, for the method shown. Some entries that bind do so weakly or less than the wild type.

By UniProt entry, the sequences of proteins in these tests, tags left out. Residues count along the entry.
UniProt P13236, residues 24-92: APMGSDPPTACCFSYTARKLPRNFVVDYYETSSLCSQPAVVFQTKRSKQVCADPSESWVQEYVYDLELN

Target: human MIP-1β (human) (UniProt P13236)
Assay: 125I-ligand cross-linking to infected BGMK supernatant, SDS-PAGE gel shift

How did the binding turn out when “35 KDa protein from vaccinia (strain Lister) (from UniProt P19063 18-258)” was run?
Its binding is “binds”.
